PubChem BioAssay AID1508597 | Cure First – 2020
Purpose: 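Genes whose silencing sensitises or protects ovarian cancer cells against rucaparib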 (primary screen). Cell system: human ovarian carcinoma lines grown from tumours: OCI-P5x (papillary serous) and OCI-C5x (clear cell). Reagent: siRNA pool against human genes, 1.25 pmol siRNA per well. Time to read-out: 72 h or 96 h, depending on the cell culture. Challenge: rucaparib 20 µM (about IC30) or vehicle, present until read-out. Rucaparib or vehicle: Rucaparib. Cell line: OCI-C5x (clear cell). Read-out: 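ATP luminescence measured at 72 or 96 h according to the culture, then normalised and expressed as percent viability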. Direction: viability, normalised: higher = more viable cells remaining. Hit rule: 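a well counts as a hit if its normalised viability is under 80 percent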. Calls: active = viability under 80%; inactive = viability 80% or more.
This is an unselected part of the about 2,100 reagents, in one setting of the screen. 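Calls flag viability under 80% in either arm, not effects specific to rucaparib; the reference for percent is not stated.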 Some reagents were tested in more than one well and are listed for each. Not stated in the record: the 100% reference.

target gene | technical replicate | viability, normalised (%) | Outcome
TLE1 (GeneID 7088) | 1 | 50.9 | active
TLE1 (GeneID 7088) | 2 | 53.6 | active
TLE1 (GeneID 7088) | 3 | 40.4 | active
CTSD (GeneID 1509) | 1 | 41 | active
CTSD (GeneID 1509) | 2 | 44.8 | active
CTSD (GeneID 1509) | 3 | 44.1 | active
PDE12 (GeneID 201626) | 1 | 40.4 | active
PDE12 (GeneID 201626) | 2 | 39.2 | active
PDE12 (GeneID 201626) | 3 | 43.2 | active
SCYL1 (GeneID 57410) | 1 | 26.6 | active
SCYL1 (GeneID 57410) | 1 | 53.8 | active
SCYL1 (GeneID 57410) | 2 | 30.7 | active
SCYL1 (GeneID 57410) | 2 | 61.8 | active
SCYL1 (GeneID 57410) | 3 | 51.8 | active
SCYL1 (GeneID 57410) | 3 | 45.3 | active
PFKFB3 (GeneID 5209) | 1 | 35.4 | active
PFKFB3 (GeneID 5209) | 2 | 34.6 | active
PFKFB3 (GeneID 5209) | 3 | 33.2 | active
PDE5A (GeneID 8654) | 1 | 58.7 | active
PDE5A (GeneID 8654) | 2 | 41.4 | active
PDE5A (GeneID 8654) | 3 | 44.1 | active
MIER2 (GeneID 54531) | 1 | 43.9 | active
MIER2 (GeneID 54531) | 2 | 40.8 | active
MIER2 (GeneID 54531) | 3 | 41.4 | active
PRPS1L1 (GeneID 221823) | 1 | 44.3 | active
PRPS1L1 (GeneID 221823) | 2 | 51.4 | active
PRPS1L1 (GeneID 221823) | 3 | 50.3 | active
ENPP7 (GeneID 339221) | 1 | 53.8 | active
ENPP7 (GeneID 339221) | 2 | 66.2 | active
ENPP7 (GeneID 339221) | 3 | 44.1 | active

Not a retest: 4 of the entries above.
target gene | technical replicate | viability, normalised (%) | Outcome
PDE5A (GeneID 8654) | 1 | 58.7 | active
PDE5A (GeneID 8654) | 2 | 41.4 | active
PDE5A (GeneID 8654) | 3 | 44.1 | active
MIER2 (GeneID 54531) | 1 | 43.9 | active

More records follow:
target gene | technical replicate | viability, normalised (%) | Outcome
AICDA (GeneID 57379) | 1 | 73.2 | active
AICDA (GeneID 57379) | 2 | 56.5 | active
AICDA (GeneID 57379) | 3 | 59.6 | active
SMPD4 (GeneID 55627) | 1 | 60.9 | active
SMPD4 (GeneID 55627) | 2 | 71.2 | active
SMPD4 (GeneID 55627) | 3 | 56.5 | active
ENPP1 (GeneID 5167) | 1 | 29.6 | active
ENPP1 (GeneID 5167) | 2 | 39.7 | active
ENPP1 (GeneID 5167) | 3 | 26.9 | active
PRDM1 (GeneID 639) | 1 | 39.9 | active
PRDM1 (GeneID 639) | 2 | 37.3 | active
PRDM1 (GeneID 639) | 3 | 29.2 | active
ATP5F1D (GeneID 513) | 1 | 67.5 | active
ATP5F1D (GeneID 513) | 2 | 67.2 | active
ATP5F1D (GeneID 513) | 3 | 73.6 | active
ZRANB3 (GeneID 84083) | 1 | 75.8 | active
ZRANB3 (GeneID 84083) | 2 | 59.4 | active
ZRANB3 (GeneID 84083) | 3 | 52.5 | active
POT1 (GeneID 25913) | 1 | 71.4 | active
POT1 (GeneID 25913) | 2 | 63.6 | active
POT1 (GeneID 25913) | 3 | 64.8 | active
SMC2 (GeneID 10592) | 1 | 52.8 | active
SMC2 (GeneID 10592) | 2 | 51.2 | active
SMC2 (GeneID 10592) | 3 | 45.3 | active
TERF2 (GeneID 7014) | 1 | 95 | inactive
TERF2 (GeneID 7014) | 1 | 51.6 | active
TERF2 (GeneID 7014) | 2 | 55.2 | active
TERF2 (GeneID 7014) | 2 | 83.2 | inactive
TERF2 (GeneID 7014) | 3 | 53.8 | active
TERF2 (GeneID 7014) | 3 | 64.5 | active
